Data as given in publication PMC10978910.
Results are given in words; binding and its absence hold for the method and conditions named. In cells and extracts the contact can be indirect. Some entries that bind do so weakly or less than the wild type. Sequences can lack the tags named with a protein.

How the values were obtained:
[1] = target: T1, ALR1-nLUC (Arabidopsis thaliana) (UniProt Q9ZVR7); test: split reporter; split luciferase complementation; 35S:cLUC-Rboh and 35S:ALR1-nLUC co-infiltrated into N. benthamiana leaves, imaged 48 h after infiltration
T1 sequence: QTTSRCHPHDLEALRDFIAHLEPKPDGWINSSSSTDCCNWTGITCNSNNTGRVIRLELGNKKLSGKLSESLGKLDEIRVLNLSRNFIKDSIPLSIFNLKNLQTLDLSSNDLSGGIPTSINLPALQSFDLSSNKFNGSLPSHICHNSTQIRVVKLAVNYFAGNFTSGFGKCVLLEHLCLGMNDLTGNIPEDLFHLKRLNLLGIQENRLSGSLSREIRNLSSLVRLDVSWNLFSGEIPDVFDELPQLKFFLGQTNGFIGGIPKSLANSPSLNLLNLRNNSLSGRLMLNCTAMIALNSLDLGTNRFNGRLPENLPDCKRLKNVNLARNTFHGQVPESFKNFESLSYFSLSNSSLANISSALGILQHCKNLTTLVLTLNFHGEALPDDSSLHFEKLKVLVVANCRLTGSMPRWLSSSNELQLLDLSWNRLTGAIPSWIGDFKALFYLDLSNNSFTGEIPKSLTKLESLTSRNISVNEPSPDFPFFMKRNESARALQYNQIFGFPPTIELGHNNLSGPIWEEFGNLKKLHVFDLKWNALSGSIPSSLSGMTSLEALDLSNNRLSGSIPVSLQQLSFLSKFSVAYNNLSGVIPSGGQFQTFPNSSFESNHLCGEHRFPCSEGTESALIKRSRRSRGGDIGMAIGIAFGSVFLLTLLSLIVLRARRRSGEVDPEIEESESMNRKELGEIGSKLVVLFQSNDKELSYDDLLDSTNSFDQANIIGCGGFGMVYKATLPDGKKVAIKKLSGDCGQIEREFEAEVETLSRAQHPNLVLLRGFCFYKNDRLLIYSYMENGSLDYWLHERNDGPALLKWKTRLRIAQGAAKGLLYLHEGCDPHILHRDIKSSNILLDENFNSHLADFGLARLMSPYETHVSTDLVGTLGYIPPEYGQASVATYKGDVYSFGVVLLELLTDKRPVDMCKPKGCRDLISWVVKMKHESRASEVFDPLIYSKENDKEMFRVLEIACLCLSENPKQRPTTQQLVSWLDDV

[2] = target: T2, BAK1-cYFP (Arabidopsis thaliana) (UniProt Q94F62); test: split reporter; BiFC (nYFP/cYFP) in Arabidopsis mesophyll protoplasts, 10-12 h in W5 solution; control, 50 µM AlCl3 or 50 µM LaCl3 for 10 min before detection
T2 sequence: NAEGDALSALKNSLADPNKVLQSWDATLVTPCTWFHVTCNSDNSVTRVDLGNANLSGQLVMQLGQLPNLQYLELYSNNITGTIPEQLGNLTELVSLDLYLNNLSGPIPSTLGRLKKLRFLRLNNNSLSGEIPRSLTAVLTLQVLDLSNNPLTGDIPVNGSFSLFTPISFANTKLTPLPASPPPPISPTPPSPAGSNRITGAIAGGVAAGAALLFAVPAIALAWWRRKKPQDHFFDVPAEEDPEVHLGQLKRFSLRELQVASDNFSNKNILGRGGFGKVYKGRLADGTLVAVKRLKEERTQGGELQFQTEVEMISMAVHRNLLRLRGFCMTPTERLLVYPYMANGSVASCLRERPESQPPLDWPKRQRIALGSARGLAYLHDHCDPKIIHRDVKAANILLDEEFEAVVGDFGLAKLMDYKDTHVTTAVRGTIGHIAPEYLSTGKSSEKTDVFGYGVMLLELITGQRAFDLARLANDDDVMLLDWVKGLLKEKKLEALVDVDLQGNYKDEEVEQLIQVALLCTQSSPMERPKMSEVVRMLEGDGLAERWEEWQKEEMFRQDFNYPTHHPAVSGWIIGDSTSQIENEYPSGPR

[3] = target: T3, YFP-BAK1 (pUC35S-YFP-BAK1) (Arabidopsis thaliana) (UniProt Q94F62); test: co-IP; protoplasts of FLAG-ALR1/WT transfected with YFP-BAK1; control or 50 µM AlCl3 for 10 min; GFP-Trap, blots with α-GFP and α-FLAG
T3 sequence: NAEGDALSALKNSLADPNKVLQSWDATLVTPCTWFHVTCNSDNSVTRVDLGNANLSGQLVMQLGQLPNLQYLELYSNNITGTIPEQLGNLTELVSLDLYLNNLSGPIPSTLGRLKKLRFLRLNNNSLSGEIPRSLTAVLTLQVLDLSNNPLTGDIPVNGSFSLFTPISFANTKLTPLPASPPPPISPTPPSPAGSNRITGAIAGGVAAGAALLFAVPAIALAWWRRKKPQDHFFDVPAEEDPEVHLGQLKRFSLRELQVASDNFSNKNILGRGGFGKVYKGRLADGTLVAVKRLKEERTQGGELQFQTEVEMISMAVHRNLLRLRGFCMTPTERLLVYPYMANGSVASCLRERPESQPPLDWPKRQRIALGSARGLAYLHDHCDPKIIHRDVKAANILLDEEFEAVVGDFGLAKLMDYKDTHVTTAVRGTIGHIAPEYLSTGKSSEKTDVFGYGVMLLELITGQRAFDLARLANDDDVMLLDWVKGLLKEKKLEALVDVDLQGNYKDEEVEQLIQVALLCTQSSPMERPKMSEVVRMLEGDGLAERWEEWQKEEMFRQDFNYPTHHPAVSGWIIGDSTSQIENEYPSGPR

Binder | binding [1] | other results
cLUC-RbohA (enzyme, UniProt O81209 1-902) MMNRSEMQKLGFEHVRYYTESPYNRGESSANVATTSNYYGEDEPYVEITLDIHDDSVSVYGLKSPNHRGAGSNYEDQSLLRQGRSGRSNSVLKRLASSVSTGITRVASSVSSSSARKPPRPQLAKLRRSKSRAELALKGLKFITKTDGVTGWPEVEKRFYVMTMTTNGLLHRSRFGECIGMKSTEFALALFDALARRENVSGDSININELKEFWKQITDQDFDSRLRTFFAMVDKDSDGRLNEAEVREIITLSASANELDNIRRQADEYAALIMEELDPYHYGYIMIENLEILLLQAPMQDVRDGEGKKLSKMLSQNLMVPQSRNLGARFCRGMKYFLFDNWKRVWVMALWIGAMAGLFTWKFMEYRKRSAYEVMGVCVCIAKGAAETLKLNMAMILLPVCRNTITWLRTKTKLSAIVPFDDSLNFHKVIAIGISVGVGIHATSHLACDFPRLIAADEDQYEPMEKYFGPQTKRYLDFVQSVEGVTGIGMVVLMTIAFTLATTWFRRNKLNLPGPLKKITGFNAFWYSHHLFVIVYSLLVVHGFYVYLIIEPWYKKTTWMYLMVPVVLYLCERLIRAFRSSVEAVSVLKVAVLPGNVLSLHLSRPSNFRYKSGQYMYLNCSAVSTLEWHPFSITSAPGDDYLSVHIRVLGDWTKQLRSLFSEVCKPRPPDEHRLNRADSKHWDYIPDFPRILIDGPYGAPAQDYKKFEVVLLVGLGIGATPMISIVSDIINNLKGVEEGSNRRQSPIHNMVTPPVSPSRKSETFRTKRAYFYWVTREQGSFDWFKNVMDEVTETDRKNVIELHNYCTSVYEEGDARSALITMLQSLNHAKHGVDVVSGTRVMSHFARPNWRSVFKRIAVNHPKTRVGVFYCGAAGLVKELRHLSLDFSHKTSTKFIFHKENF | binds weakly | –
cLUC-RbohE (enzyme, UniProt O81211 1-952) MKLSPLSFSTSSSFSHADGIDDGVELISSPFAGGAMLPVFLNDLSRNSGESGSGSSWERELVEVTLELDVGDDSILVCGMSEAASVDSRARSVDLVTARLSRNLSNASTRIRQKLGKLLRSESWKTTTSSTAGERDRDLERQTAVTLGILTARDKRKEDAKLQRSTSSAQRALKGLQFINKTTRGNSCVCDWDCDCDQMWKKVEKRFESLSKNGLLARDDFGECVGMVDSKDFAVSVFDALARRRRQKLEKITKDELHDFWLQISDQSFDARLQIFFDMADSNEDGKITREEIKELLMLSASANKLAKLKEQAEEYASLIMEELDPENFGYIELWQLETLLLQRDAYMNYSRPLSTTSGGVSTPRRNLIRPRHVVQKCRKKLQCLILDNWQRSWVLLVWVMLMAILFVWKFLEYREKAAFKVMGYCLTTAKGAAETLKLNMALVLLPVCRNTLTWLRSTRARACVPFDDNINFHKIIACAIAIGILVHAGTHLACDFPRIINSSPEQFVLIASAFNGTKPTFKDLMTGAEGITGISMVILTTIAFTLASTHFRRNRVRLPAPLDRLTGFNAFWYTHHLLVVVYIMLIVHGTFLFFADKWYQKTTWMYISVPLVLYVAERSLRACRSKHYSVKILKVSMLPGEVLSLIMSKPPGFKYKSGQYIFLQCPTISRFEWHPFSITSAPGDDQLSVHIRTLGDWTEELRRVLTVGKDLSTCVIGRSKFSAYCNIDMINRPKLLVDGPYGAPAQDYRSYDVLLLIGLGIGATPFISILKDLLNNSRDEQTDNEFSRSDFSWNSCTSSYTTATPTSTHGGKKKAVKAHFYWVTREPGSVEWFRGVMEEISDMDCRGQIELHNYLTSVYDEGDARSTLIKMVQALNHAKHGVDILSGTRVRTHFARPNWKEVFSSIARKHPNSTVGVFYCGIQTVAKELKKQAQDMSQKTTTRFEFHKEHF | binds weakly | –
ALR1-nYFP (receptor, UniProt Q9ZVR7 26-1008) QTTSRCHPHDLEALRDFIAHLEPKPDGWINSSSSTDCCNWTGITCNSNNTGRVIRLELGNKKLSGKLSESLGKLDEIRVLNLSRNFIKDSIPLSIFNLKNLQTLDLSSNDLSGGIPTSINLPALQSFDLSSNKFNGSLPSHICHNSTQIRVVKLAVNYFAGNFTSGFGKCVLLEHLCLGMNDLTGNIPEDLFHLKRLNLLGIQENRLSGSLSREIRNLSSLVRLDVSWNLFSGEIPDVFDELPQLKFFLGQTNGFIGGIPKSLANSPSLNLLNLRNNSLSGRLMLNCTAMIALNSLDLGTNRFNGRLPENLPDCKRLKNVNLARNTFHGQVPESFKNFESLSYFSLSNSSLANISSALGILQHCKNLTTLVLTLNFHGEALPDDSSLHFEKLKVLVVANCRLTGSMPRWLSSSNELQLLDLSWNRLTGAIPSWIGDFKALFYLDLSNNSFTGEIPKSLTKLESLTSRNISVNEPSPDFPFFMKRNESARALQYNQIFGFPPTIELGHNNLSGPIWEEFGNLKKLHVFDLKWNALSGSIPSSLSGMTSLEALDLSNNRLSGSIPVSLQQLSFLSKFSVAYNNLSGVIPSGGQFQTFPNSSFESNHLCGEHRFPCSEGTESALIKRSRRSRGGDIGMAIGIAFGSVFLLTLLSLIVLRARRRSGEVDPEIEESESMNRKELGEIGSKLVVLFQSNDKELSYDDLLDSTNSFDQANIIGCGGFGMVYKATLPDGKKVAIKKLSGDCGQIEREFEAEVETLSRAQHPNLVLLRGFCFYKNDRLLIYSYMENGSLDYWLHERNDGPALLKWKTRLRIAQGAAKGLLYLHEGCDPHILHRDIKSSNILLDENFNSHLADFGLARLMSPYETHVSTDLVGTLGYIPPEYGQASVATYKGDVYSFGVVLLELLTDKRPVDMCKPKGCRDLISWVVKMKHESRASEVFDPLIYSKENDKEMFRVLEIACLCLSENPKQRPTTQQLVSWLDDV | – | binding [2]: binds
FLAG-ALR1 (receptor, UniProt Q9ZVR7 26-1008) QTTSRCHPHDLEALRDFIAHLEPKPDGWINSSSSTDCCNWTGITCNSNNTGRVIRLELGNKKLSGKLSESLGKLDEIRVLNLSRNFIKDSIPLSIFNLKNLQTLDLSSNDLSGGIPTSINLPALQSFDLSSNKFNGSLPSHICHNSTQIRVVKLAVNYFAGNFTSGFGKCVLLEHLCLGMNDLTGNIPEDLFHLKRLNLLGIQENRLSGSLSREIRNLSSLVRLDVSWNLFSGEIPDVFDELPQLKFFLGQTNGFIGGIPKSLANSPSLNLLNLRNNSLSGRLMLNCTAMIALNSLDLGTNRFNGRLPENLPDCKRLKNVNLARNTFHGQVPESFKNFESLSYFSLSNSSLANISSALGILQHCKNLTTLVLTLNFHGEALPDDSSLHFEKLKVLVVANCRLTGSMPRWLSSSNELQLLDLSWNRLTGAIPSWIGDFKALFYLDLSNNSFTGEIPKSLTKLESLTSRNISVNEPSPDFPFFMKRNESARALQYNQIFGFPPTIELGHNNLSGPIWEEFGNLKKLHVFDLKWNALSGSIPSSLSGMTSLEALDLSNNRLSGSIPVSLQQLSFLSKFSVAYNNLSGVIPSGGQFQTFPNSSFESNHLCGEHRFPCSEGTESALIKRSRRSRGGDIGMAIGIAFGSVFLLTLLSLIVLRARRRSGEVDPEIEESESMNRKELGEIGSKLVVLFQSNDKELSYDDLLDSTNSFDQANIIGCGGFGMVYKATLPDGKKVAIKKLSGDCGQIEREFEAEVETLSRAQHPNLVLLRGFCFYKNDRLLIYSYMENGSLDYWLHERNDGPALLKWKTRLRIAQGAAKGLLYLHEGCDPHILHRDIKSSNILLDENFNSHLADFGLARLMSPYETHVSTDLVGTLGYIPPEYGQASVATYKGDVYSFGVVLLELLTDKRPVDMCKPKGCRDLISWVVKMKHESRASEVFDPLIYSKENDKEMFRVLEIACLCLSENPKQRPTTQQLVSWLDDV | – | binding [3]: binds
